{"source": "PubChem BioAssay AID720505 (Drosophila RNAi Screening Center, 2013)", "aim": "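Genes needed for store-operated calcium entry in fly cells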 (primary screen)", "cell system": "Drosophila S2R+ cells", "reagent": "long dsRNA against Drosophila genes", "treatment": "thapsigargin (2 µM) in calcium-free buffer to empty internal stores, then 2 mM calcium added back", "read-out": "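Stores emptied by 2 µM thapsigargin without calcium, then 2 mM calcium re-added; fluo-4 fluorescence followed by FLIPR in 384-well plates, per-well averaged endpoint, raw; two screen passes, some wells retested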", "direction": "calcium signal: higher = more calcium entry after store depletion", "hit rule": "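Knock-downs counted as hits when calcium entry dropped relative to STIM1 positive and Rho1 negative controls present on each plate; roughly 1500 genes called, with reductions of differing size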", "calls": "active = called as lowering calcium entry; inactive = not called", "note": "The deposit covers about 20,000 reagents; shown is a random part of those that have a named target and a result. Of all reagents, about 2,100 (10%) were called active. 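Raw plate signals without normalisation; calls rest on control-based scores that were not deposited; replicate 2 separates called from uncalled poorly.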 Entries without a mark were called inactive. Names joined by + are all predicted targets of the reagent. Not given: the amount of reagent, the time to read-out."}
{"predicted target":"CG12898","amplicon":"DRSC06213","calcium signal, replicate 1":125,"calcium signal, replicate 2":137}
{"predicted target":"PCNA (Proliferating cell nuclear antigen)","amplicon":"DRSC07653","calcium signal, replicate 1":"73.9 (active)","calcium signal, replicate 2":89.6}
{"predicted target":"CG31677","amplicon":"DRSC22023","calcium signal, replicate 1":62.9,"calcium signal, replicate 2":183}
{"predicted target":"CG8617","amplicon":"DRSC07223","calcium signal, replicate 1":80.9,"calcium signal, replicate 2":138}
{"predicted target":"CG14142","amplicon":"DRSC10145","calcium signal, replicate 1":88.4,"calcium signal, replicate 2":102}
{"predicted target":"Rab7","amplicon":"DRSC16810","calcium signal, replicate 1":141,"calcium signal, replicate 2":152}
{"predicted target":"TfAP-2 (Transcription factor AP-2)","amplicon":"DRSC11601","calcium signal, replicate 1":90.2,"calcium signal, replicate 2":241}
{"predicted target":"dmrt93B (doublesex-Mab related 93B)","amplicon":"DRSC15865","calcium signal, replicate 1":172,"calcium signal, replicate 2":117}
{"predicted target":"Alr (Augmenter of liver regeneration)","amplicon":"DRSC19469","calcium signal, replicate 1":"47.1 (active)","calcium signal, replicate 2":89.3}
{"predicted target":"Aos1 (Activator of SUMO 1)","amplicon":"DRSC14113","calcium signal, replicate 1":128,"calcium signal, replicate 2":97.2}
{"predicted target":"ZnT63C (Zinc transporter 63C)","amplicon":"DRSC08519","calcium signal, replicate 1":108,"calcium signal, replicate 2":103}
{"predicted target":"ZnT63C (Zinc transporter 63C)","amplicon":"DRSC21989","calcium signal, replicate 1":100,"calcium signal, replicate 2":163}
{"predicted target":"CG15201","amplicon":"DRSC19648","calcium signal, replicate 1":"54.7 (active)","calcium signal, replicate 2":108}
{"predicted target":"Liprin-gamma","amplicon":"DRSC04093","calcium signal, replicate 1":168,"calcium signal, replicate 2":158}
{"predicted target":"CG6294 + CG6299 + CG15642","amplicon":"DRSC19981","calcium signal, replicate 1":"72.5 (active)","calcium signal, replicate 2":121}
{"predicted target":"CG3339","amplicon":"DRSC15479","calcium signal, replicate 1":162,"calcium signal, replicate 2":107}
{"predicted target":"CG11147","amplicon":"DRSC02129","calcium signal, replicate 1":108,"calcium signal, replicate 2":103}
{"predicted target":"dpa (disc proliferation abnormal)","amplicon":"DRSC07604","calcium signal, replicate 1":176,"calcium signal, replicate 2":119}
{"predicted target":"Hmr (Hybrid male rescue)","amplicon":"DRSC17740","calcium signal, replicate 1":84,"calcium signal, replicate 2":126}
{"predicted target":"cola + swif","amplicon":"DRSC06826","calcium signal, replicate 1":99.7,"calcium signal, replicate 2":151}
{"predicted target":"cola + swif","amplicon":"DRSC21965","calcium signal, replicate 1":89.3,"calcium signal, replicate 2":276}
{"predicted target":"arg (arginase)","amplicon":"DRSC18737","calcium signal, replicate 1":87,"calcium signal, replicate 2":98.4}
{"predicted target":"St1 (Sulfotransferase 1)","amplicon":"DRSC04504","calcium signal, replicate 1":"62.5 (active)","calcium signal, replicate 2":149}
{"predicted target":"sxc (super sex combs)","amplicon":"DRSC04911","calcium signal, replicate 1":143,"calcium signal, replicate 2":185}
{"predicted target":"RpL34a (Ribosomal protein L34a)","amplicon":"DRSC15964","calcium signal, replicate 1":229,"calcium signal, replicate 2":127}
{"predicted target":"CG42493","amplicon":"DRSC05309","calcium signal, replicate 1":93.1,"calcium signal, replicate 2":95.4}
{"predicted target":"egg (eggless)","amplicon":"DRSC04119","calcium signal, replicate 1":"53.6 (active)","calcium signal, replicate 2":157}
{"predicted target":"egg (eggless)","amplicon":"DRSC22534","calcium signal, replicate 1":112,"calcium signal, replicate 2":105}

Quoted from the entries so far for reference:
{"predicted target":"CG42493","amplicon":"DRSC05309","calcium signal, replicate 1":93.1,"calcium signal, replicate 2":95.4}
{"predicted target":"egg (eggless)","amplicon":"DRSC04119","calcium signal, replicate 1":"53.6 (active)","calcium signal, replicate 2":157}
{"predicted target":"egg (eggless)","amplicon":"DRSC22534","calcium signal, replicate 1":112,"calcium signal, replicate 2":105}
